Results deposited as PubChem BioAssay AID1671195 (Yale University, 2021).
Aim: 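Knockdowns that increase or decrease uptake of fluorescent LDL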 (primary screen). System: human Huh7 hepatoma cells. Knock-down reagent: siRNA pool against human genes, 18 nM. Timing: about 2 to 2.5 days of knockdown, then 8 h LDL uptake. Conditions: DiI-labelled LDL at 30 µg/ml for 8 h, in lipoprotein-deficient serum medium. Read-out: 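Fluorescent LDL signal imaged in cells, scaled to the plate median, robust z-score for each replicate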. Scale: robust z-score: higher = more LDL uptake after knockdown. Rule for the call: 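Active when two or more replicates show a robust z-score above 2 or below -2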.
This is an unselected part of about 22,000 reagents. About 1,510 of all reagents (6.9%) were called active. 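Active includes knockdowns raising or lowering LDL uptake; positive z-scores mean more uptake, negative mean less.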 No sequences are given here.

Gene | robust z-score, replicate 1 | robust z-score, replicate 2 | robust z-score, replicate 3 | Call
KLF3 (KLF transcription factor 3) | 0.488 | 0.0701 | 0.0788 | inactive
LOC442016 (retired record) | 2.57 | 3.34 | 3.4 | active
GPS2 (G protein pathway suppressor 2) | 2.1 | -1.91 | 1.63 | inactive
TRAPPC11 (trafficking protein particle complex subunit 11) | 0.408 | 0.0271 | 0.163 | inactive
SIGLEC5 (sialic acid binding Ig like lectin 5) | 1.12 | -0.127 | 0.473 | inactive
PPP2R5A (protein phosphatase 2 regulatory subunit B'alpha) | -0.761 | -0.884 | -1.32 | inactive
ETS2 (ETS proto-oncogene 2, transcription factor) | 2.57 | 1.6 | 1.55 | inactive
ST3GAL4 (ST3 beta-galactoside alpha-2,3-sialyltransferase 4) | 0.716 | 0.12 | -1.9 | inactive
SALL1 (spalt like transcription factor 1) | -1.65 | -1.82 | -1.38 | inactive
LOC441697 (retired record) | 0.275 | 0.165 | -0.253 | inactive
PSMB10 (proteasome 20S subunit beta 10) | 2.1 | 1.06 | 1.55 | inactive
PRR4 (proline rich 4) | -0.899 | 0.403 | -1.12 | inactive
F9 (coagulation factor IX) | -2.36 | -1.75 | -1.99 | active
GOLGA2 (golgin A2) | -0.886 | -0.597 | -0.766 | inactive
SAMD3 (sterile alpha motif domain containing 3) | -0.808 | -2.06 | -1.02 | inactive
PMFBP1 (polyamine modulated factor 1 binding protein 1) | 2.37 | 2.02 | 2.58 | active
LOC442382 (ATPase plasma membrane Ca2+ transporting 1 pseudogene) | -1.72 | -1.62 | -1.36 | inactive
RPA3 (replication protein A3) | 0.216 | 0.826 | -0.0423 | inactive
ZNF426 (zinc finger protein 426) | -2 | -2.17 | -1.9 | active
YARS1 (tyrosyl-tRNA synthetase 1) | 0.051 | 0.181 | -0.0611 | inactive
COPZ1 (coat protein complex I subunit zeta 1) | -0.0858 | -0.289 | -0.2 | inactive
LOC401887 (retired record) | 0.256 | 0.0859 | -0.0753 | inactive
RCHY1 (ring finger and CHY zinc finger domain containing 1) | 1.79 | 1.66 | 2.59 | inactive
ITPRID1 (ITPR interacting domain containing 1) | 0.201 | 0.333 | 0.0503 | inactive
FBXW5 (F-box and WD repeat domain containing 5) | -1.57 | -0.553 | -0.825 | inactive
BCKDK (branched chain keto acid dehydrogenase kinase) | -0.0216 | -1.33 | -0.807 | inactive
OVOL2 (ovo like zinc finger 2) | -1.77 | -1.79 | -1.77 | inactive
OR51T1 (olfactory receptor family 51 subfamily T member 1) | -1.18 | -1.47 | -1.54 | inactive

Look-ups from the entries so far:
Value of RPA3 (replication protein A3) under “robust z-score, replicate 2”: 0.826
Under “robust z-score, replicate 2”, ZNF426 (zinc finger protein 426) shows -2.17
Result of KLF3 (KLF transcription factor 3) under “Call”: inactive
